Counter-ions that a name gives are not always drawn. The match of structure and compound is tentative.
What was measured:
[1] = Preliminary physical stability, open storage at 25°C/60% RH and 25°C/80% RH
[2] = Solid stability, 25°C/92.5%RH open and 60°C closed, 1 week (XRPD, HPLC, color); parameters: CL (color): key to the marks not given beside the values; settings: for Solid (XRPD): crystal form after storage
[3] = Solubility at 37°C in water, buffer and simulated biological fluids (2 h, 24 h)
[4] = 25°C/92.5%RH, open storage conditions

SMILES: O=C(O)CCc1cc(C(=O)c2ccc(OC3CCCC3)cc2O)ccc1OCc1ccc2c(O)noc2c1 [Betaine salt Form A]
- moisture absorption and color change of the solid ([1]; 25°C/60%RH, open storage for 3 days): No significant moisture absorption of the solid; no significant color change.
- moisture absorption and color change of the solid ([1]; 25°C/80%RH, open storage for 2 days): No significant moisture absorption of the solid; no significant color change.
- CL (color) [2, 4]: A
- Solid (HPLC) Purity [2, 4]: 98.7%
- Solid (XRPD) [2, 4]: Betaine salt Form A
- CL (color) ([2]; 60°C, closed container): A
- Solid (HPLC) Purity ([2]; 60°C, closed container): 98.7%
- Solid (XRPD) ([2]; 60°C, closed container): Betaine salt Form A
- pH of the supernatant 24h ([3]; FaSSGF, pH 1.6, 37°C): 1.5
- pH of the supernatant 24h ([3]; FaSSIF-v1, pH 6.5, 37°C): 6.3
- pH of the supernatant 24h ([3]; FeSSIF-v1, pH 5.0, 37°C): 4.9
- pH of the supernatant 24h ([3]; Water, 37°C): 7.4

Source: patent EP4847492A1, “USE OF SALT FORMS OF COMPOUND AND CRYSTAL FORMS THEREOF IN TREATMENT OF HEART FAILURE WITH PRESERVED EJECTION FRACTION” (dated 2026)
